# Earlier results, collected in EP0060659A1, “Pharmaceutical composition for tumour treatment and process for preparing it” (NATIONAL FOUNDATION FOR CANCER RESEARCH, INC., priority 1981, dated 1982).
# For at least one compound, name, drawing or mass did not settle the structure.
# Test system: tumour cells
# Details: cited from earlier work
compound,measurement,value
CC(O)C=CC=O (stereo not shown) [4-hydroxypentenal],toxicity to tumour cells,highly toxic
